# According to PubChem BioAssay AID720504 (National Center for Advancing Translational Sciences (NCATS), 2013):
# By UniProt entry, the sequences of proteins in these tests, tags left out.
# UniProt P53350, whole entry, looked up: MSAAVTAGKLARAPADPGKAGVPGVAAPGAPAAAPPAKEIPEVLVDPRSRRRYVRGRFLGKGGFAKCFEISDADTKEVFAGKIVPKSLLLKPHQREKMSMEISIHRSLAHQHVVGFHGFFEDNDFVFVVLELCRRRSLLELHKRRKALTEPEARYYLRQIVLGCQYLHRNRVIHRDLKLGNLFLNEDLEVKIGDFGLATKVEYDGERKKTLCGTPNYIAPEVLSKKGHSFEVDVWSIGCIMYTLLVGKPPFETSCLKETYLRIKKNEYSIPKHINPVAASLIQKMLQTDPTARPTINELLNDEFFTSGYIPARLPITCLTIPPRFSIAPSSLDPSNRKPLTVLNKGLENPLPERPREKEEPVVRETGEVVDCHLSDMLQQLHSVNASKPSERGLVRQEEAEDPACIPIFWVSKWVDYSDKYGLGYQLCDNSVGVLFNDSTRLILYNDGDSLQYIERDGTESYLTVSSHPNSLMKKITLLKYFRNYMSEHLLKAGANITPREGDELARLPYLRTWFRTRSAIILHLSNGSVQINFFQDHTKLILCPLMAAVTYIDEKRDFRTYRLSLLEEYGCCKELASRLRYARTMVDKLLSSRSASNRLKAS
# About 10,000 (2.8%) of roughly 360,000 compounds were called active. Inconclusive results, whose numbers are uncertain, are shown with a selection of clear calls. Calls follow the shape of the dose curve; as a rule, active = well fitted inhibition curve with a large enough effect; inconclusive = small, poorly fitted or top-dose-only effect; inactive = flat fitted curve, though single readings scatter. Potencies of inconclusive entries are doubtful fits and often do not repeat.
# Target: Serine/threonine-protein kinase PLK1 (Homo sapiens) (UniProt P53350)
# Assay: qHTS for Inhibitors of PLK1-PDB (polo-like kinase 1 - polo-box domain): Primary Screen; also: nearly all actives have a fitted effect of over 65% in size; as to max response, negative = inhibition: series mostly up to about 57 µM
# Settings: Plk1 PBD binding of FITC phosphopeptide, fluorescence polarization
# % is scaled to controls: 0 for no effect and ±100 for the full control effect; potency is read from the fitted curve at half-maximal effect.
Structure (SMILES),Potency,"max response, negative = inhibition"
Cc1cc(N2CCOCC2)nc2ccc(NC(=S)N3CCN(c4ccccc4)CC3)cc12,"inconclusive: 13.4 µM [inhibitor, partial curve]",
Cc1ccc(N2CCN(/N=C/c3ccccc3[N+](=O)[O-])CC2)cc1,,inactive: -1.34%
O=C(COc1ccc2oc(-c3ccco3)cc(=O)c2c1)N1CCCCC1,,inactive: -21.4%
Brc1ccc(C2=CSC3=NCCN23)cc1,"inconclusive: 21.2 µM [inhibitor, partial curve]",
O=C(CC1C(=O)NCCN1CCCc1ccccc1)NCCc1ccccc1F (stereo not given),,inconclusive: -31.3% [inhibitor]
C(=N\Nc1ncnc2sc3c(c12)CCC3)/c1ccncc1,,inactive: -20.8%
CCC(CC)c1nnc(NC(=O)C2CCN(C(=O)c3ccco3)CC2)s1,"inconclusive: 4.74 µM [inhibitor, full curve]",
Cc1ccc(C)c(N2CCN(C(=O)c3ccc4nc(-c5ccco5)c(-c5ccco5)nc4c3)CC2)c1,active: 5.97 µM,
Cc1ccc(S(=O)(=O)N2CCN(C(=O)COC(=O)/C=C/c3ccc(F)cc3)CC2)c(C)c1,,inactive: -6%
Cc1cc(Br)ccc1OCCCCNC(C)(C)C,active: 26.7 µM,
CCOCCCNC(=S)N(Cc1ccccc1)Cc1nc2ccccc2c(=O)[nH]1,"inconclusive: 10.6 µM [inhibitor, partial curve]",
O=S(=O)(Nc1cc(Sc2ncn[nH]2)c(O)c2ccccc12)c1ccccc1,active: 2.12 µM,
C=CCNc1nc(NCC)nc(N2CCOCC2)n1,,inactive: -9.87%
COC(=O)c1cccc(NC(=S)Nc2cc(Cl)ccc2OC)c1,"inconclusive: 26.7 µM [inhibitor, partial curve]",
COc1ccc(/C(N)=N/OC(=O)CN(C)S(=O)(=O)c2ccccc2)cc1,"inconclusive: 26.7 µM [inhibitor, single point]",
O=C(CSc1nc2cc(Cl)ccc2s1)c1ccco1,"inconclusive: 21.2 µM [inhibitor, partial curve]",
O=C(CC1C[C@H](C(=O)N2CCOCC2)[C@@]2(CCC3CCCC3)c3[nH]c4ccccc4c3CCN2C1=O)NCCc1ccccn1 (stereo not given in full),,inactive: -10.4%
CC(C)Cc1nnc(NS(=O)(=O)Cc2ccccc2)s1,"inconclusive: 29.9 µM [inhibitor, single point]",
COCCNC(=O)[C@@H]1CSC2c3ccccc3C(=O)N21 (stereo not given in full),"inconclusive: 10.6 µM [inhibitor, partial curve]",
N#Cc1ccc(-c2nc3ccc(Cl)cn3c2Cc2ccsc2)cc1,"inconclusive: 26.7 µM [inhibitor, partial curve]",
COc1ccc(NC(=O)c2cccnc2)cc1OCC(C)C,"inconclusive: 37.7 µM [inhibitor, partial curve]",
CCCCN(C)C(=O)c1nc2ccccn2c1CN1CCC[C@H]1C(=O)OC,"inconclusive: 37.7 µM [inhibitor, single point]",
COc1ccc(CN(CC2CCC(C(=O)O)CC2)C(=S)Nc2cc(Cl)ccc2OC)cc1 (stereo not given),,inconclusive: -33.1% [inhibitor]
COc1ccc(C(=O)C2CCCN(C(=O)CCC3=NNC(=O)CC3)C2)c(C)c1 (stereo not given),"inconclusive: 21.2 µM [inhibitor, single point]",

Structure (SMILES),Potency,"max response, negative = inhibition"
CC(C)=C(NC(=O)c1ccccc1)C(=O)NCCc1nc2ccccc2[nH]1,"inconclusive: 26.7 µM [inhibitor, single point]",
O=C(NNc1nc(-c2ccc(F)cc2)cs1)c1ccccc1,"inconclusive: 26.7 µM [inhibitor, single point]",
CCOc1cc(/C=C2/C(=O)NN(c3cccc(Cl)c3)C2=O)ccc1O,"inconclusive: 26.7 µM [inhibitor, single point]",
Cc1ccccc1N(C(=O)c1snc(C(N)=O)c1N)C(C(=O)NCC1CCCO1)c1ccc(F)cc1 (stereo not given),"inconclusive: 26.7 µM [inhibitor, partial curve]",
Nc1c(C(=O)O)sc2nc(-c3ccccc3)cc(-c3ccc(F)cc3)c12,"inconclusive: 29.9 µM [inhibitor, single point]",
CC(=O)NC(NC(C)=O)c1cccc(OCc2ccccc2)c1,"inconclusive: 26.7 µM [inhibitor, single point]",
CCOC(=O)C(Cc1ccccc1)NC(=O)CCc1c(C)nc2ncnn2c1C (stereo not given),,inactive: -6.54%
CCc1cc(=S)n2c([nH]c3ccccc32)c1C#N,"inconclusive: 18.9 µM [inhibitor, partial curve]",
O=c1ccnc(Sc2ncccc2[N+](=O)[O-])[nH]1,active: 26.7 µM,
CCOc1ccc(NS(=O)(=O)c2ccc3c(c2)N(C(C)=O)CCS3)cc1,active: 26.7 µM,
CCOC(=O)/C(C#N)=C/c1cccn1-c1ccc(Cl)cc1,,inactive: -0.227%
CC(C)(C)c1ccc(/C=N/Nc2cccc(C(=O)O)c2)cc1,"inconclusive: 37.7 µM [inhibitor, single point]",
Cc1ccc2cc(C3C(C#N)=C(N)Oc4c3ccc3cccnc43)c(=O)[nH]c2c1 (stereo not given),"inconclusive: 16.8 µM [inhibitor, single point]",
COc1ccc(OC)c(C2C3CN(C(C)C)CC=C3C(C#N)=C(N)C2(C#N)C#N)c1 (stereo not given),"inconclusive: 26.7 µM [inhibitor, single point]",
C1=C(N2CCOCC2)/C(=C/c2nc3ccccc3[nH]2)CC1,"inconclusive: 21.2 µM [inhibitor, partial curve]",
O=P(OCC1CCCO1)(OCC1CCCO1)OCC1CCCO1 (stereo not given),,inactive: -11.4%
CCc1ccc2c(c1)cc(CN(C(=S)Nc1cccc(C)c1)C1CC1)c1nnnn12,"inconclusive: 29.9 µM [inhibitor, partial curve]",
COc1ccc(NC(=S)NC(NC(=O)c2cccc(C)c2)C(Cl)(Cl)Cl)c([N+](=O)[O-])c1 (stereo not given),"inconclusive: 26.7 µM [inhibitor, single point]",
Cc1ccc(C(C[N+](=O)[O-])c2c(-c3ccccc3O)[nH][nH]c2=O)cc1 (stereo not given),"inconclusive: 26.7 µM [inhibitor, single point]",
Cc1cc(NC(=O)CSc2cn(CCNC(=O)c3ccccc3)c3ccccc23)no1,"inconclusive: 23.8 µM [inhibitor, single point]",
Cc1cccc(Nc2nnc(SCC(=O)N(C)C3CCS(=O)(=O)C3)s2)c1C (stereo not given),,inactive: -2.38%
CC(C)CN1CCN(Cc2ccc3ncccc3c2)CC1CCO (stereo not given),,inactive: 3.35%
Cc1ccc(-c2n[nH]c(=S)n2C)cc1Cl,"inconclusive: 23.8 µM [inhibitor, single point]",
Cc1sc2ncnc(SCC(=O)Nc3nc(-c4ccc(F)c(F)c4)cs3)c2c1C,"inconclusive: 37.7 µM [inhibitor, single point]",

Structure (SMILES),Potency,"max response, negative = inhibition"
CCOc1ccc(Nc2cc(C)c3ccccc3n2)cc1,,inactive: -7.33%
COc1ccc2c(c1)Cc1sc(NC(=O)c3ccco3)nc1-2,"inconclusive: 26.7 µM [inhibitor, single point]",
CC1CCN(c2ccc(NC(=O)C3CCCN3S(=O)(=O)c3ccc(F)cc3)cc2)CC1 (stereo not given),,inactive: -13.9%
CC1CCCCN1C(=O)CN1C(=O)CSc2ccc(S(=O)(=O)N3CCOCC3)cc21 (stereo not given),"inconclusive: 37.7 µM [inhibitor, partial curve, poor fit]",
Cc1ccc(NC(=S)NCc2ccccc2)cc1S(=O)(=O)N1CCCCC1,"inconclusive: 26.7 µM [inhibitor, partial curve]",
O=C(CSc1n[nH]c(-c2ccco2)n1)Nc1ccc(Br)cc1,active: 26.7 µM,
COc1ccc(N2CCN(S(=O)(=O)c3ccc(OC)cc3)CC2)cc1,"inconclusive: 37.7 µM [inhibitor, single point]",
Cc1ccc(C(=O)/C=C/C(=O)O)cc1,"inconclusive: 26.7 µM [inhibitor, partial curve]",
O=[N+]([O-])c1ccc(S(=O)(=O)Nc2ccc3c(c2)OCCO3)cc1,active: 23.8 µM,
Cc1cc(CC(=O)O)c2oc(-c3ccoc3)cc(=O)c2c1,"inconclusive: 29.9 µM [inhibitor, partial curve]",
Cc1ccc(NC(=O)c2cc(C)nc3ccccc23)c(Br)c1,,inconclusive: -35% [inhibitor]
O=C(Nc1cccc(S(=O)(=O)N2CCCC2)c1)[C@H]1C[C@H](O)[C@@H](CO)O1,,inactive: -11.1%
Cc1[nH]c2ccccc2c1C(c1ccncc1)N1CCC(C)CC1 (stereo not given),"inconclusive: 15 µM [inhibitor, partial curve]",
C/C(=C\C(=O)c1ccccc1)Nc1ccc(Cl)c(Br)c1,active: 26.7 µM,
ON1C(c2ccc(Cl)cc2Cl)N(O)[C@H]2CCCC[C@H]21 (stereo not given in full),,inactive: -7.84%
CC(C)(C)OC(=O)N1CCC[C@H]1c1nnc(SCc2c(F)cccc2Cl)o1,"inconclusive: 18.9 µM [inhibitor, partial curve]",
CNC(=O)C(=O)Nc1nc(C23CC4CC(CC(C4)C2)C3)cs1,active: 29.9 µM,
COc1ccc(Cn2c(O)cc(=O)[nH]c2=O)cc1,"inconclusive: 26.7 µM [inhibitor, partial curve]",
O=C(CS(=O)c1ccc(C(F)(F)F)cc1[N+](=O)[O-])Oc1ccc(Cl)cc1 (stereo not given),active: 13.4 µM,
COc1ccc(NC(=O)CSc2nnnn2-c2cccc(OC)c2)cc1,,inactive: 5.21%
NC(=O)CC(NC(=O)c1ccccc1)c1ccc(N2CCCCCC2)c([N+](=O)[O-])c1 (stereo not given),"inconclusive: 26.7 µM [inhibitor, single point]",
CCOc1cc(/C=C2\N=C(C)OC2=O)cc(Br)c1OCC(=O)OC,,inconclusive: -30.1% [inhibitor]

# Of the compounds above, four have a thiophene ring, fused or not:
Structure (SMILES),Potency,"max response, negative = inhibition"
C(=N\Nc1ncnc2sc3c(c12)CCC3)/c1ccncc1,,inactive: -20.8%
N#Cc1ccc(-c2nc3ccc(Cl)cn3c2Cc2ccsc2)cc1,"inconclusive: 26.7 µM [inhibitor, partial curve]",
Nc1c(C(=O)O)sc2nc(-c3ccccc3)cc(-c3ccc(F)cc3)c12,"inconclusive: 29.9 µM [inhibitor, single point]",
Cc1sc2ncnc(SCC(=O)Nc3nc(-c4ccc(F)c(F)c4)cs3)c2c1C,"inconclusive: 37.7 µM [inhibitor, single point]",
